Source: the supplement of paper PMC10849652
The list shows a part of the results.

By UniProt entry, the sequences of proteins in these tests, tags left out. Where a name states a change or a piece, a line headed by the entry shows the natural chain unless it says otherwise.
UniProt Q5JRA6: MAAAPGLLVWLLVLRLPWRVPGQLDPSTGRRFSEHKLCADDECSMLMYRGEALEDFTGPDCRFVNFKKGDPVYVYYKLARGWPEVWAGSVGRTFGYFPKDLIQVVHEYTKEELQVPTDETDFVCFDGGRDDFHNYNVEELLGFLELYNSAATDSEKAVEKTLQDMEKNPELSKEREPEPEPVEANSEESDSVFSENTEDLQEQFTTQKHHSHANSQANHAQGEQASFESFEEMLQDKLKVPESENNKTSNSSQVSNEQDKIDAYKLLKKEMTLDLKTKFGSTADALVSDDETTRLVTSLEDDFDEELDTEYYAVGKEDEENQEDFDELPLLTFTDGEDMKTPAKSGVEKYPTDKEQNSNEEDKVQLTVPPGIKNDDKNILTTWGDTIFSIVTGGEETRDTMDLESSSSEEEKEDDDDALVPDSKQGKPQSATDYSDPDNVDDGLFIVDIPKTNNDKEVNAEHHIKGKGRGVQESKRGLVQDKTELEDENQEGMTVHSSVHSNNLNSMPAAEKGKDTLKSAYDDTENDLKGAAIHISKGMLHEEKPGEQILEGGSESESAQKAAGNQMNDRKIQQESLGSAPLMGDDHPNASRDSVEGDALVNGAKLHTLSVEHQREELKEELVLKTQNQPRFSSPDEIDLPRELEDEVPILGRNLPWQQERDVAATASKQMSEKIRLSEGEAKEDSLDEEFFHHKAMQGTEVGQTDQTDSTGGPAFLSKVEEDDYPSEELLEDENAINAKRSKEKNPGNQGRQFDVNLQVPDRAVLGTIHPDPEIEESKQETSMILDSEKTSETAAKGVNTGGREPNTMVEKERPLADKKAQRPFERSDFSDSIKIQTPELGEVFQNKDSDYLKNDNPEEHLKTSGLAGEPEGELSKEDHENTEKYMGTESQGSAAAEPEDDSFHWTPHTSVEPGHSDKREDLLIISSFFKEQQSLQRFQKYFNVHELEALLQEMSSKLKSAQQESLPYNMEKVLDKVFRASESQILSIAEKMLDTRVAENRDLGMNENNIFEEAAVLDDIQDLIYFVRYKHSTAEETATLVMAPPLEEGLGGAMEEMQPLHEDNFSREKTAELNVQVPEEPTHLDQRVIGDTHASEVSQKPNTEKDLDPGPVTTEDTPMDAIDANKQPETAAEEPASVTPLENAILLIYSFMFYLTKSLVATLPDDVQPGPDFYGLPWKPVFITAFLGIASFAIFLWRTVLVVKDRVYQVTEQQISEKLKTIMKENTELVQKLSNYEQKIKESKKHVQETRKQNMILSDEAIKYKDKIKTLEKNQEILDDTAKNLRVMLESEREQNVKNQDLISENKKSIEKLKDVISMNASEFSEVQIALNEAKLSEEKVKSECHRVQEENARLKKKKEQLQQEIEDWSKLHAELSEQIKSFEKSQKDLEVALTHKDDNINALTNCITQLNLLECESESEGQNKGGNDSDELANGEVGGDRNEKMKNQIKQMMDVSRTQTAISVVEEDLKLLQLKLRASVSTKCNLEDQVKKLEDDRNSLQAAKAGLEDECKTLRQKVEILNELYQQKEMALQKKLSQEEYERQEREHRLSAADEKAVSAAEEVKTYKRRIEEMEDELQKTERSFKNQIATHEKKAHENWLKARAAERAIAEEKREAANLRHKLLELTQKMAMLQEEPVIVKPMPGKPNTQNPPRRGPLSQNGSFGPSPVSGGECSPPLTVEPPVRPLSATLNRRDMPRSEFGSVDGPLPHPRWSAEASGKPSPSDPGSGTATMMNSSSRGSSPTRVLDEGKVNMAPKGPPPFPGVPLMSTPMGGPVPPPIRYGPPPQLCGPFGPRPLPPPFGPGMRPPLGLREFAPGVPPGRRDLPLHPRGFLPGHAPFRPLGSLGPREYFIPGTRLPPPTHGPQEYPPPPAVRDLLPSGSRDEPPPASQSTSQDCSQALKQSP
UniProt Q9BPX6: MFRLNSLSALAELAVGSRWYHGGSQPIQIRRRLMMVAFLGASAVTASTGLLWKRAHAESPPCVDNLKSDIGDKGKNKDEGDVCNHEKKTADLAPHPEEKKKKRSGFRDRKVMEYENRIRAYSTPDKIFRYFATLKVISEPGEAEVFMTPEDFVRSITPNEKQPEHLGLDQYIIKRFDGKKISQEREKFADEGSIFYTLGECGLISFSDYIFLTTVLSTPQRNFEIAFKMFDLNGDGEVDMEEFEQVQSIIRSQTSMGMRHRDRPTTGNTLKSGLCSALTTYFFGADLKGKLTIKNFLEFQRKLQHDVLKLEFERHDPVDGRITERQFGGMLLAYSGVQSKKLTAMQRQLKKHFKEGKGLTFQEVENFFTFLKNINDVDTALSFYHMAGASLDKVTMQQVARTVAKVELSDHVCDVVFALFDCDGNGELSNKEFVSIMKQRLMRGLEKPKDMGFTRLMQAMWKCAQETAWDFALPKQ
UniProt P29372, whole entry, looked up: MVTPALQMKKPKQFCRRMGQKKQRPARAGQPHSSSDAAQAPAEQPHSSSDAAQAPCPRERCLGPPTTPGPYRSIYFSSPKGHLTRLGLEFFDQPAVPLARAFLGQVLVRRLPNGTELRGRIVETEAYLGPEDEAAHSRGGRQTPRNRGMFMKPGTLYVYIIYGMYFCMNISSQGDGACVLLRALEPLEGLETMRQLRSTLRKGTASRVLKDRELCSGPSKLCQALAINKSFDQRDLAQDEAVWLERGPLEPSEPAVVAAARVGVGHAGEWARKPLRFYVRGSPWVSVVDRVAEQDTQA
UniProt Q99735: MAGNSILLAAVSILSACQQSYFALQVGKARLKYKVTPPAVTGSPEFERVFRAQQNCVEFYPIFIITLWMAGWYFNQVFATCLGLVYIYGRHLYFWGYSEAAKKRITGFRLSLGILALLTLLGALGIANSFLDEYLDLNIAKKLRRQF
UniProt Q6IN84: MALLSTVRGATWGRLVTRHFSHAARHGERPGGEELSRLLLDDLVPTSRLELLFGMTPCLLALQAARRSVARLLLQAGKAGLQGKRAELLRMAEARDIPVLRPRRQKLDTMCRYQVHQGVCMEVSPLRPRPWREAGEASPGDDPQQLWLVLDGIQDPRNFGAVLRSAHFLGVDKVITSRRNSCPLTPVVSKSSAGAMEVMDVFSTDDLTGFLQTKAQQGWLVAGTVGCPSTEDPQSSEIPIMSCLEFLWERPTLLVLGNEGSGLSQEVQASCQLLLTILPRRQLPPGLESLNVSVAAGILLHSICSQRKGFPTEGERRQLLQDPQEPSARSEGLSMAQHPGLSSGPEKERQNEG
UniProt Q96T76: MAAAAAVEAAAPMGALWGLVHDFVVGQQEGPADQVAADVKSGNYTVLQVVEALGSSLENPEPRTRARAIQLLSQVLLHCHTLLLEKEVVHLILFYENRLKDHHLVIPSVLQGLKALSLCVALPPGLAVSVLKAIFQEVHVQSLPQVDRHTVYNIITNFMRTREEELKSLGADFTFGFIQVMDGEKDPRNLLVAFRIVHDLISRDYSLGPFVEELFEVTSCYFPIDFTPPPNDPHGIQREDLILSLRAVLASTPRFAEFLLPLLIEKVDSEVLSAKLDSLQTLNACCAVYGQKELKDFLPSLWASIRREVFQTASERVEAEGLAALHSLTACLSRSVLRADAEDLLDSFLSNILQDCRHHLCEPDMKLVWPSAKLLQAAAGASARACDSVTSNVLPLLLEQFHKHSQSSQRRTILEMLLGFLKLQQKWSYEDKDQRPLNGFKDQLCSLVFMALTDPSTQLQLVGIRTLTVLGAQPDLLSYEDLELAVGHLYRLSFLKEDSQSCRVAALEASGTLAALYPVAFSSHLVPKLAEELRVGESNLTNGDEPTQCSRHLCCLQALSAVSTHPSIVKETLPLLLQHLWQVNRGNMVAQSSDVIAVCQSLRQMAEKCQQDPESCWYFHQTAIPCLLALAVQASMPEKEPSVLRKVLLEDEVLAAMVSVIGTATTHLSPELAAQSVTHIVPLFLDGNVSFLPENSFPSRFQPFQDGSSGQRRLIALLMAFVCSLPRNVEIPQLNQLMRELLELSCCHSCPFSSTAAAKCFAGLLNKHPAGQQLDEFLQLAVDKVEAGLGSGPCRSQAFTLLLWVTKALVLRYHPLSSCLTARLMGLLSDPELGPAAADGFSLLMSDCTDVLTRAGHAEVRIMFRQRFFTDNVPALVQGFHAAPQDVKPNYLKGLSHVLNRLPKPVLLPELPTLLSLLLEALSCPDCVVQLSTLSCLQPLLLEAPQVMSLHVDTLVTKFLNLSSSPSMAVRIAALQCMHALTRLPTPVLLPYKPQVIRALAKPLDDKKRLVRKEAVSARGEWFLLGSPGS
UniProt O00566: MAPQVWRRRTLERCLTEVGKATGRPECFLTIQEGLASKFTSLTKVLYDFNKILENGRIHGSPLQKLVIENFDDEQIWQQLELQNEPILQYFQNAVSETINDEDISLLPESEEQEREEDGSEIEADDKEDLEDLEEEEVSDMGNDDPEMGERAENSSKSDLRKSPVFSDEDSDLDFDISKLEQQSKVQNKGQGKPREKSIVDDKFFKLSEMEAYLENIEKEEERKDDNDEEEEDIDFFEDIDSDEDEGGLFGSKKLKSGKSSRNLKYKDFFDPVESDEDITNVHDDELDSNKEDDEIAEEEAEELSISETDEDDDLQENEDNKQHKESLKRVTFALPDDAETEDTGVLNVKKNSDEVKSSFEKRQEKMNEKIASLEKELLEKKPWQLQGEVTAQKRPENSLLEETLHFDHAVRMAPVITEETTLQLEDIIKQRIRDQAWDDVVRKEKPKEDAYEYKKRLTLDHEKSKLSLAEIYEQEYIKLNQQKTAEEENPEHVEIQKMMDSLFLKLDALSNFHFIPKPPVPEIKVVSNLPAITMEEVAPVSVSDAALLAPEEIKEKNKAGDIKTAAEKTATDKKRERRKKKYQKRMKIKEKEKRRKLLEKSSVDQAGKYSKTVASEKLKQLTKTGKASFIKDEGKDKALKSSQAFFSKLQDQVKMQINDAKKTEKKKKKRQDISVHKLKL
UniProt P39210: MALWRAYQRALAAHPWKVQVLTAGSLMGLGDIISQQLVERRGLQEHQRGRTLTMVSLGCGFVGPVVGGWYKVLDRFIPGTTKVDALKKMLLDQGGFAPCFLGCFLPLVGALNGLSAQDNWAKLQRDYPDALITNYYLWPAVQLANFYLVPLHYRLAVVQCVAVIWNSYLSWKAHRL
UniProt Q9BRT3: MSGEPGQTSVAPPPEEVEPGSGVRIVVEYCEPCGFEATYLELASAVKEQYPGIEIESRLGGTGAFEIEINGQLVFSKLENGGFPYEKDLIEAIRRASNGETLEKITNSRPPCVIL
UniProt Q8NB16: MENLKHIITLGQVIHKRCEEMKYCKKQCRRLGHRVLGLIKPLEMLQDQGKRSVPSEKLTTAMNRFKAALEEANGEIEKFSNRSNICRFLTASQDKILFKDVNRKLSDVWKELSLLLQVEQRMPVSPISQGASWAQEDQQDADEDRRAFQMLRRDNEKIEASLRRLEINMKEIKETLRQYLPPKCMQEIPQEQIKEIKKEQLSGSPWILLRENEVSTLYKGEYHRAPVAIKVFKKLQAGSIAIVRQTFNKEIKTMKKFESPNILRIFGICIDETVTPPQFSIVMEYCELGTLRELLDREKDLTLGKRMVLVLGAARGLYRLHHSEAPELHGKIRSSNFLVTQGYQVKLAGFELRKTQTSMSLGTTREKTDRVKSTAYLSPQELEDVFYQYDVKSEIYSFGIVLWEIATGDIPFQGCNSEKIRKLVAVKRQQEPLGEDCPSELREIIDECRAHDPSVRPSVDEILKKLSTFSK
UniProt Q10469: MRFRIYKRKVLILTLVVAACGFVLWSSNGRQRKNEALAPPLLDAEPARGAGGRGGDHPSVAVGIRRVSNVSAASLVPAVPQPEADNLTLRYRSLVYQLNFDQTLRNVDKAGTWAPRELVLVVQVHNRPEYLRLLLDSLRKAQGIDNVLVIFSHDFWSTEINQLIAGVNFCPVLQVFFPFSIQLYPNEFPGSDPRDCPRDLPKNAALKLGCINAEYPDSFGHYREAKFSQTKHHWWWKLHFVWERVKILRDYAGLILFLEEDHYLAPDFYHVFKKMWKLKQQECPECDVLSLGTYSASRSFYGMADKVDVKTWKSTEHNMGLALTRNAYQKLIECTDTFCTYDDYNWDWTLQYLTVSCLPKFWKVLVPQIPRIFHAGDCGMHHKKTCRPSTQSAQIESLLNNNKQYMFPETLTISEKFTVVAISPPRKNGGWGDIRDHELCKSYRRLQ
UniProt Q6NTE8: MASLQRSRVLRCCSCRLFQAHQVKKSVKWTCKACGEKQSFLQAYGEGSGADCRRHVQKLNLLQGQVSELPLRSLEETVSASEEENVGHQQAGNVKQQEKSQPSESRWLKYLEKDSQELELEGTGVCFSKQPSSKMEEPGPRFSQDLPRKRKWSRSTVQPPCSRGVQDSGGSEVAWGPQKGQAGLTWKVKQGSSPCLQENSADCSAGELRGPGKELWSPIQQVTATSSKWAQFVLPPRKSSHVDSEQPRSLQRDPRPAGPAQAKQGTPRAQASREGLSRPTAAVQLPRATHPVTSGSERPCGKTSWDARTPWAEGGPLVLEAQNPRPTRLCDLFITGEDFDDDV

How the values were obtained:
Experiment in all cases: log2 fold change, soluble protein after heating vs DMSO (PISA); higher = thermal stabilisation; K562 lysate, 10 uM; active = over 0.2 and 3.5 SD of the protein, either way, in both replicates (recomputed)
[1] = compound: C=CC(=O)N1CCC[C@@H](n2nc(-c3ccc(Oc4ccccc4)cc3)c3c(N)ncnc32)C1 [ibrutinib]
How it was run: (§1)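 K562 pellets were dounce-homogenised in PBS pH 7.4 with 1 mM MgCl2, and the crude extract at 1 mg/mL protein was treated with 10 μM compound for 30 min. Aliquots were heated for 3 min across 48°C-58°C, pooled, and brought to 0.5% NP-40 at 4°C; soluble protein was the supernatant after 21,000xg for 90 min. Soluble protein was quantified by TMTpro 16plex LC-MS/MS with channel sums equalised, and reported as log2 fold change in thermal stability against DMSO controls, with values from duplicates.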

[2] = compound: CC(=O)c1cnc2ccc(-c3cc(Cl)c(O)c(Cl)c3)nc2c1N[C@H]1CC[C@H](CN(C)C)CC1
How it was run: as §1

[3] = compound: CC(C)(C)Cn1c(N)nc2ccc(-c3[nH]c(C(C)(C)C)nc3-c3ccc(F)cc3)nc21 [ralimetinib]
How it was run: as §1

[4] = compound: CC(C)(O)CC(=O)NCCn1ccc2ncnc(Nc3ccc(Oc4cccc(C(F)(F)F)c4)c(Cl)c3)c21
How it was run: as §1

[5] = compound: CC(C)C1=C2N=C(C=C(N2N=C1)NCC3=CC=CC=C3)NCCCCCCN
How it was run: as §1

[6] = compound: CC1=C(C(CC(=O)N1)C2=CC=C(C=C2)C(F)(F)F)C(=O)NC3=C(C=C4C(=C3)C=NN4)F
How it was run: as §1

[7] = compound: CC1=C(C2=C(C=C1)C(=O)C3=CC=CC=C3N2CCCN)C
How it was run: as §1

[8] = compound: CC1=C(C=C(C=C1)NC(=O)C2=CC(=CC=C2)C(C)(C)C#N)NC3=CC4=C(C=C3)N=CN(C4=O)C
How it was run: as §1

[9] = compound: CC1=C(C=C(C=C1)NC(=O)C2=CC(=CC=C2)N(C)C)NC(=O)C3=CC=C(C=C3)O
How it was run: as §1

[10] = compound: CC1=CC=C(C=C1)SC2=C3C=C(SC3=CN=C2)C(=O)N
How it was run: as §1

[11] = compound: CCCS(=O)(=O)Nc1ccc(F)c(C(=O)c2c[nH]c3ncc(-c4ccc(Cl)cc4)cc23)c1F [vemurafenib]
How it was run: as §1

[12] = compound: CCCS(=O)(=O)Nc1ccc(F)c(C(=O)c2c[nH]c3ncc(Cl)cc23)c1F
How it was run: as §1

[13] = compound: CCN(CCCOc1ccc2c(Nc3cc(CC(=O)Nc4cccc(F)c4)[nH]n3)ncnc2c1)CCOP(=O)(O)O [barasertib]
How it was run: as §1

[14] = compound: CC[C@@H]1C(=O)N(C)c2cnc(Nc3ccc(C(=O)NC4CCN(C)CC4)cc3OC)nc2N1C1CCCC1
How it was run: as §1

[15] = compound: CC[C@@H]1C(=O)N(C)c2cnc(Nc3ccc(C(=O)N[C@H]4CC[C@H](N5CCN(CC6CC6)CC5)CC4)cc3OC)nc2N1C(C)C [volasertib]
How it was run: as §1

[16] = compound: CCn1c(C(=O)N(C2CC2)C2CC2)cc2c3c(ncn3C)c(Nc3cc(C)n(C)n3)nc21
How it was run: as §1

[17] = compound: CCn1cc(-c2ccnc3[nH]c(-c4cccc(CN(C)C)c4)cc23)c(-c2ccc(NC(=O)N(C)C)cc2)n1
How it was run: as §1

[18] = compound: CN1CCC(CNc2ccc3ncc(-c4cccc(OC(F)(F)F)c4)n3n2)CC1
How it was run: as §1

[19] = compound: CN1CCN(CCOc2cc(OC3CCOCC3)c3c(Nc4c(Cl)ccc5c4OCO5)ncnc3c2)CC1 [saracatinib]
How it was run: as §1

[20] = compound: CN1CCN(c2nc(C3=C(c4c[nH]c5ccccc45)C(=O)NC3=O)c3ccccc3n2)CC1 [sotrastaurin]
How it was run: as §1

Target	log2 fold change [1]	log2 fold change [2]	log2 fold change [3]	log2 fold change [4]	log2 fold change [5]	log2 fold change [6]	log2 fold change [7]	log2 fold change [8]	log2 fold change [9]	log2 fold change [10]	log2 fold change [11]	log2 fold change [12]	log2 fold change [13]	log2 fold change [14]	log2 fold change [15]	log2 fold change [16]	log2 fold change [17]	log2 fold change [18]	log2 fold change [19]	log2 fold change [20]
MIA3 (UniProt Q5JRA6)	inactive: 0.009	inactive: 0.024	inactive: 0.002	inactive: 0.008	inactive: -0.011	inactive: 0.018	inactive: -0.015	inactive: -0.033	inactive: 0.016	inactive: -0.007	inactive: -0.012	inactive: 0.009	inactive: 0.031	inactive: 0.04	inactive: -0.022	inactive: 0.036	inactive: 0.043	inactive: -0.001	inactive: 0.006	inactive: 0.016
MICU1 isoform 3 (UniProt Q9BPX6)	inactive: -0.011	inactive: -0.021	inactive: 0.023	inactive: 0.001	inactive: -0.02	inactive: 0	inactive: 0.013	inactive: -0.028	inactive: 0.038	inactive: 0.019	inactive: -0.055	inactive: -0.004	inactive: 0.094	inactive: 0.002	inactive: -0.005	inactive: 0.091	active: 0.234	active: -0.422	inactive: 0.006	inactive: 0.044
MRPL21 (UniProt Q7Z2W9)	inactive: 0.023	inactive: 0.002	inactive: 0.015	inactive: -0.044	inactive: 0.026	inactive: -0.035	inactive: -0.028	inactive: 0.015	inactive: 0.01	inactive: 0.029	inactive: 0.015	inactive: -0.001	inactive: 0.012	inactive: -0.005	inactive: -0.012	inactive: -0.014	inactive: -0.025	inactive: -0.002	inactive: 0.019	inactive: -0.065
MPG (UniProt P29372)	inactive: -0.016	inactive: -0.029	inactive: -0.012	inactive: -0.044	inactive: 0.05	inactive: 0.019	inactive: 0.002	inactive: -0.009	inactive: 0.011	inactive: -0.029	inactive: 0.014	inactive: 0.009	inactive: -0.004	inactive: -0.016	inactive: -0.052	inactive: -0.01	inactive: 0.01	inactive: -0.096	inactive: -0.002	inactive: 0.013
MRPL20 (UniProt Q9BYC9)	inactive: 0.067	inactive: -0.001	inactive: 0.003	inactive: 0.002	inactive: -0.032	inactive: -0.094	inactive: -0.098	inactive: 0.009	inactive: 0.01	inactive: 0.204	inactive: 0.009	inactive: -0.043	inactive: 0.003	inactive: 0.142	inactive: -0.007	inactive: 0.107	inactive: -0.011	inactive: -0.019	inactive: -0.006	inactive: 0
MGST2 (UniProt Q99735)	inactive: 0.02	inactive: 0.006	inactive: -0.036	inactive: -0.074	inactive: -0.054	inactive: -0.009	inactive: -0.008	inactive: 0.052	inactive: 0.088	inactive: 0.016	inactive: 0.066	inactive: -0.068	inactive: -0.02	inactive: 0.111	inactive: 0.017	inactive: -0.085	inactive: 0.08	inactive: 0.071	inactive: 0.005	inactive: 0.017
MRM1 (UniProt Q6IN84)	inactive: 0	inactive: -0.085	inactive: 0.023	inactive: -0.085	inactive: 0.017	inactive: 0.013	inactive: -0.018	inactive: 0.022	inactive: -0.024	inactive: -0.041	inactive: 0.038	inactive: 0.029	inactive: -0.018	inactive: -0.045	inactive: 0.007	inactive: -0.092	inactive: -0.034	inactive: 0.002	inactive: -0.005	inactive: -0.004
MRPL13 (UniProt Q9BYD1)	inactive: -0.027	inactive: -0.033	inactive: 0.012	inactive: -0.003	inactive: -0.023	inactive: -0.003	inactive: -0.024	inactive: -0.036	inactive: 0.009	inactive: 0.029	inactive: 0.014	inactive: -0.04	inactive: -0.038	inactive: -0.017	inactive: -0.025	inactive: 0.028	inactive: -0.072	inactive: 0.025	inactive: 0.011	inactive: -0.011
MMS19 isoform 8 (UniProt Q96T76)	inactive: -0.023	inactive: -0.011	inactive: 0.022	inactive: -0.02	inactive: -0.041	inactive: 0.006	inactive: -0.018	inactive: 0.013	inactive: 0.055	inactive: 0.004	inactive: 0.064	inactive: 0.006	inactive: 0.029	inactive: -0.061	inactive: -0.114	inactive: 0.002	inactive: -0.005	inactive: -0.051	inactive: 0	inactive: 0.026
MPHOSPH10 (UniProt O00566)	inactive: -0.013	inactive: 0.012	inactive: 0.035	inactive: 0.014	inactive: 0.06	inactive: -0.036	inactive: -0.02	inactive: 0.005	inactive: -0.029	inactive: 0.02	inactive: -0.016	inactive: 0.057	inactive: 0.072	inactive: 0.004	inactive: -0.003	inactive: 0.024	inactive: 0.125	inactive: -0.022	inactive: 0.072	inactive: -0.041
MPV17 (UniProt P39210)	inactive: 0.073	inactive: 0.03	inactive: 0.195	inactive: -0.07	inactive: 0.136	inactive: -0.211	inactive: -0.04	inactive: 0.175	inactive: -0.102	inactive: 0.018	inactive: -0.125	inactive: -0.07	inactive: 0.041	inactive: 0.036	inactive: 0.196	inactive: 0.019	inactive: -0.102	inactive: -0.02	inactive: -0.02	inactive: -0.152
MIEN1 (UniProt Q9BRT3)	inactive: 0.053	inactive: -0.068	inactive: 0.025	inactive: -0.05	inactive: -0.012	inactive: -0.038	inactive: -0.003	inactive: -0.052	inactive: 0.009	inactive: 0.063	inactive: 0.004	inactive: -0.006	inactive: 0.211	inactive: -0.018	inactive: 0.03	inactive: 0.042	inactive: -0.03	inactive: -0.138	inactive: 0.004	inactive: -0.049
MLKL (UniProt Q8NB16)	inactive: -0.009	inactive: 0.289	inactive: -0.086	inactive: -0.019	inactive: 0.165	inactive: -0.028	–	inactive: 0.086	inactive: 0.222	inactive: -0.219	–	inactive: 0.098	inactive: 0.185	inactive: -0.107	inactive: -0.016	inactive: 0.096	inactive: -0.251	inactive: 0.072	–	inactive: -0.021
MGAT2 (UniProt Q10469)	inactive: -0.023	inactive: 0.031	inactive: 0.025	inactive: -0.022	inactive: -0.013	inactive: 0.033	inactive: -0.021	inactive: -0.013	inactive: -0.017	inactive: 0.005	inactive: -0.09	inactive: -0.024	inactive: 0.057	inactive: -0.124	inactive: -0.003	inactive: 0.01	inactive: -0.055	inactive: 0.05	inactive: 0.017	inactive: -0.014
MRNIP (UniProt Q6NTE8)	inactive: 0.125	inactive: 0.002	inactive: -0.054	inactive: -0.023	inactive: 0.044	inactive: -0.116	inactive: -0.063	inactive: 0.078	inactive: 0.089	inactive: -0.063	–	inactive: -0.078	inactive: 0.142	–	inactive: -0.062	inactive: -0.127	inactive: -0.021	inactive: 0.196	inactive: 0.144	inactive: 0.004
MRPL2 (UniProt Q5T653)	inactive: -0.001	inactive: -0.058	inactive: 0.044	inactive: -0.035	inactive: -0.023	inactive: 0.012	inactive: -0.091	inactive: 0.011	inactive: 0.031	inactive: 0.037	inactive: 0.126	inactive: 0.009	inactive: 0.009	–	inactive: 0	inactive: 0.02	inactive: -0.077	inactive: 0.041	inactive: -0.047	inactive: 0.047

Rewritten in markdown: part of the list above.

| Target | log2 fold change [1] | log2 fold change [2] | log2 fold change [3] | log2 fold change [4] | log2 fold change [5] | log2 fold change [6] | log2 fold change [7] | log2 fold change [8] | log2 fold change [9] | log2 fold change [10] | log2 fold change [11] | log2 fold change [12] | log2 fold change [13] | log2 fold change [14] | log2 fold change [15] | log2 fold change [16] | log2 fold change [17] | log2 fold change [18] | log2 fold change [19] | log2 fold change [20] |
| --- | --- | --- | --- | --- | --- | --- | --- | --- | --- | --- | --- | --- | --- | --- | --- | --- | --- | --- | --- | --- |
| MGST2 (UniProt Q99735) | inactive: 0.02 | inactive: 0.006 | inactive: -0.036 | inactive: -0.074 | inactive: -0.054 | inactive: -0.009 | inactive: -0.008 | inactive: 0.052 | inactive: 0.088 | inactive: 0.016 | inactive: 0.066 | inactive: -0.068 | inactive: -0.02 | inactive: 0.111 | inactive: 0.017 | inactive: -0.085 | inactive: 0.08 | inactive: 0.071 | inactive: 0.005 | inactive: 0.017 |
| MRM1 (UniProt Q6IN84) | inactive: 0 | inactive: -0.085 | inactive: 0.023 | inactive: -0.085 | inactive: 0.017 | inactive: 0.013 | inactive: -0.018 | inactive: 0.022 | inactive: -0.024 | inactive: -0.041 | inactive: 0.038 | inactive: 0.029 | inactive: -0.018 | inactive: -0.045 | inactive: 0.007 | inactive: -0.092 | inactive: -0.034 | inactive: 0.002 | inactive: -0.005 | inactive: -0.004 |
